Results: article PMC11425205, “MdSINA2‐MdNAC104 Module Regulates Apple Alkaline Resistance by Affecting γ‐Aminobutyric Acid Synthesis and Transport”
Construct, isoform or probe ends are uncertain for at least one entry. At least one verdict was read from the data and is not stated in words by the source. Tags and fusion partners may be left off the protein sequences shown.

Molecular target: T1, MdNAC104 (UniProt D9ZJ88)
T1 sequence (looked up, limits assumed): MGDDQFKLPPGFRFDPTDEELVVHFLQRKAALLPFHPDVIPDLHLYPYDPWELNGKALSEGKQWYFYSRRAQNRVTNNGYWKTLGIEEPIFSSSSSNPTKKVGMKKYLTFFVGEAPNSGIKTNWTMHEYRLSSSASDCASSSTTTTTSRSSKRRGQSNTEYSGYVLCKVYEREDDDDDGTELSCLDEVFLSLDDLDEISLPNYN
Experiment: EMSA
Conditions: LightShift Chemiluminescent EMSA Kit (Thermo) per manufacturer; pH and temperature not stated; recombinant protein; protein details: His (pET-32a vector); label: 5' biotin

Row | Sequence | binding result
1 | GCGACCATTGCACGCAGCACGCACACAGGA (double strand) [MdGAD3 probe 2/3] | binds
2 | TAATAGAAATGAGCACGTTTGTTAACGTTA (double strand) [MdGAD3 probe 5] | binds
